{
  "sequences": {"note": "The chains behind the UniProt entries cited, without tags or fusion partners. Residues count along the entry.", "UniProt P36544, 23-502 L270T": "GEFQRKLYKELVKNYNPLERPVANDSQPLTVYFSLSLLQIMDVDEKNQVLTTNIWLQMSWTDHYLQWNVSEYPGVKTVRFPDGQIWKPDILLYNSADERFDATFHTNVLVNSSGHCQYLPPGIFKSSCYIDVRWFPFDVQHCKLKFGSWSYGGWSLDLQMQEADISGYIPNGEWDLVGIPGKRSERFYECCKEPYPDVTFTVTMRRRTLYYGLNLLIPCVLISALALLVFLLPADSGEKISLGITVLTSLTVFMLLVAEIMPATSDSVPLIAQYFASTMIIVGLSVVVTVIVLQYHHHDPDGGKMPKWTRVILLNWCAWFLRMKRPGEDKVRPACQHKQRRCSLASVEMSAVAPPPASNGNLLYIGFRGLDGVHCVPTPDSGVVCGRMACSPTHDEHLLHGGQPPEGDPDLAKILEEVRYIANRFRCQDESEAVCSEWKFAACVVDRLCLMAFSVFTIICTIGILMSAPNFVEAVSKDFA"},
  "source": "patent US7358057B2",
  "about": "“QM-7 and QT-6 cells transfected with mutant cell surface expressed channel receptors and assays using the transfected cells” (Memory Pharmaceuticals Corporation, priority 2002, dated 2008)",
  "target": "T1, L270T mutant α7 receptor (Homo sapiens, UniProt P36544, L270T)",
  "T1 construct": "expressed in transfected cells; host or cells: QM-7 cells (quail), transient transfection with Lipofectamine PLUS",
  "experiment": "Real time, high throughput Ca++ imaging assay using FLIPR, QM-7 cells transiently transfected with L270T mutant α7",
  "format": "cell-based",
  "details": "QM-7 cells transiently transfected with the mutant",
  "method": "QM-7 cells were transiently transfected with either wild type or L 270T mutant α7 receptor with Lipofectamine PLUS reagent (Invitrogen), in 175 cm^2 flasks. Twenty four hours after the transfection, the cells were collected and re-seeded into a 96-well plate at a density of 40,000 cells/well. Twenty four hours after re-seeding, the cell were incubated with Ca^++ sensitive dye Fluo 3, washed and stimulated with the selective alpha 7 agonist GTS-21. Cellular Ca^++ signal was detected with FLIPR, quantified and plotted against the concentration of GTS-21.",
  "note": "At least one compound was matched to its structure with a doubt left.",
  "data": [
    {"smiles": "CC(=O)OCC[N+](C)(C)C", "note": "[acetylcholine]", "values": [
      {"measurement": "Responsiveness of cells to agonist (Ca++ signal)", "value": "responsive"}
    ]}
  ]
}
